Measurements taken from PubChem BioAssay AID1508600 (Functional Genomics Laboratory (NCATS/FGL), 2020).
About 3,700 (7%) of roughly 53,000 sequences were called active.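 How the source made its calls: active means gene knockdowns whose robust z-score for IL-1 alpha signal is at least 2 or at most -2, so actives lie on both sides; inactive means the rest.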 The list shows a part of the results.

Assay: Components of the Cytosolic LPS Sensing Pathway: Gene Identification via Genome-wide siRNA Screen;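 further: robust z of the log signal after scaling to non-targeting control siRNA wells of the plate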
Conditions: RAW264.7 macrophages, IL-1a HTRF, actives lie on both sides, screened at 100 nM (by protocol), cells primed 5 h with Pam3CSK4 first
Outline: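 Using IL-1a HTRF as read-out, the screen measured release from RAW264.7 cells after 48h siRNA knockdown (100 nM), 5 h Pam3CSK4 priming and 24 h cytosolic LipidA. Values were expressed relative to negative-control wells as robust z-scores.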

Sequence | z-score
GCUCUGCAUGACCUUACCUTT against Ugt2b1 | inactive: 0.245
GGAGAAUACCAGCAACAUCTT against Golga5 | inactive: 0.328
GGACAGAAACUAAUUGCAUTT against Tmc5 | inactive: 0.278
GGCGUGUUGAGACAAUCCUTT against Lkaaear1 | inactive: -0.815
GGAAGUUGUAUAAGCCAGGTT against Cyb5d2 | inactive: -0.197
GGAUGUUCCAUUUCUAAGCTT against Zfp30 | active: -3.76
CCCAUCCUAUGUGCCCUAUTT against Krtap13-1 | inactive: -1.91
GGCCAAAUACGUCAAGAGCTT against Fam110b | inactive: 0.588
GGAGAUCACCUUCCUGAAGTT against Comp | inactive: -1.51
GGUGAAAAGAUGCAGGUGATT against Atp1a3 | inactive: -1.1
GGAAUUGGCAUCCUUAAGCTT against Cops3 | active: 2.43
CCUCACUGUAAUGUAACUUTT against Scarf2 | inactive: -0.683
CGUGACUAUUCUGAUAAGUTT against Arl15 | inactive: 0.134
GCUGGAGCUAUCCAACACUTT against Chst11 | inactive: -1.73
GGUUCCUUCGUUGUGUUGATT against Irx3 | inactive: -1.1
CGAGCUGUGUUUUUGGCUGTT against Mrpl11 | inactive: 1.2
GGAGGAUGACAAAAUCUAUTT against Rnf113a2 | inactive: 1.25
GAAUCUGGUGAAGUAUUAUTT against Phip | inactive: 0.518
CCGGAAAAUACGCACUGUATT against Obox6 | inactive: -1.27
CCCUUUGUGUGGAUUAUAUTT against Sp9 | active: 2.91
GCUAUAGAUUGGCUUUAUGTT against Depdc1a | inactive: 0.727
GGACAGCUUCAUCAAGCCUTT against Cep89 | inactive: -0.628

Sequence | z-score
GGCUCUAAAUUUUUUGUUCTT against Derl1 | inactive: 0.532
GCAAGUGAAAUCCAAACAGTT against Nabp1 | inactive: -1.54
GGCUGGAUGUCCUAUAGUCTT against Adam24 | inactive: 1.03
GGUGGACUCACAUUAUUGUTT against Dctn4 | inactive: 0.535
GGUGAUAGAGCACAAGGCUTT against G930045G22Rik | inactive: 0.0132
GGCACUCCAUCAAAGGCUUTT against Cd209a | inactive: -1.38
GGCAAAGAGAUUGACAUUGTT against Kif2c | inactive: -0.991
CCAUAUCUCUAUCUACUGGTT against Rs1 | inactive: 0.546
GGUUUGAAAUCAGCAUGAUTT against Mpzl3 | inactive: 0.652
GCAGUCAAUUCCCUUUUACTT against Ankmy1 | inactive: -0.876
GCUUCCUCUAUUCGAUUUUTT against Dennd5a | inactive: 0.527
CCUGUUCUGCCCUAAAUUUTT against Olfr1155 | inactive: -0.919
GGUCGGCCAAUUACAAUGUTT against Eml4 | active: 2.16
GGUCCAUGAACCUCAGUGUTT against F830045P16Rik | inactive: -0.561
GGGAGGACCUUGUGUAUCATT against Igsf21 | inactive: -0.173
CCUUGACUGGAAUAUAUAATT against Dlc1 | inactive: -0.398
GCACCUCUAUUAUAAUAAGTT against Vps13c | inactive: -0.453
GGGUACCAUAUCCUCACCUTT against Ltbp3 | inactive: -1.61
CGCAUGCCUGUAAAAUAAATT against 2310057M21Rik | inactive: -1.37
UCUGCCACCCUCUCCAAUATT against Olfr1116 | inactive: 0.0182
GGAAAUAAUGCUUAUGGAUTT against Abcb1b | inactive: -0.699
GGACCUGUUGUCAGACUGCTT against Kif20a | inactive: 1.57

As entered above:
GGGAGGACCUUGUGUAUCATT against Igsf21 – z-score: inactive: -0.173
GCAAGUGAAAUCCAAACAGTT against Nabp1 – z-score: inactive: -1.54
CCAUAUCUCUAUCUACUGGTT against Rs1 – z-score: inactive: 0.546
GCACCUCUAUUAUAAUAAGTT against Vps13c – z-score: inactive: -0.453

(listing goes on)

Sequence | z-score
GCUUGACAAUAAAUCCCACTT against Efcab14 | inactive: 0.585
CCUGGCAGACGUGGAACAATT against Ppp1r13l | inactive: -0.102
CGAGGAUUAAGAGGACUUCTT against Col9a3 | inactive: -1.99
CCAGAUUCUAUAAUAGAGUTT against Gabrp | inactive: -0.232
GGAGCUAUAAUUAACAAGATT against Adam6a | inactive: 0.152
GCCAUAAGUUAUGAUGUGGTT against Cplx4 | inactive: -0.733
GCUCUGAAGCUGAUACUCATT against Rab3ip | inactive: -1.23
GGGUCCUCUGAAAGUUACCTT against Fndc5 | inactive: 0.497
GGACCAUUCUGAAGAGCAGTT against Il5ra | inactive: 0.867
GGUUCCAUGUUGGAUAUCATT against Stk39 | inactive: -1.1
GGAUGAAGGCCAUUCAAACTT against Hnrnpd | active: 2.04
GCCUAUUCACCAAAUCACATT against Frrs1 | inactive: 0.408
GGGCUUUACUGACUUCAAGTT against Hexa | inactive: -0.526
GGAGAUUCUGUGCAAUGCATT against Dnajc12 | inactive: -0.0758
GCUGGACAAACGAUGGUCATT against Ift122 | inactive: -1.7
GGCUCUGUUGUCCUUGACCTT against Epb41l4a | inactive: -0.97
GGAAAGGUAAUCCUGACUUTT against Asb17 | inactive: -1.87
GGUCCGGGAGUAACUUUUCTT against Mafb | inactive: -1.36
GGGACAAUACAUUGAUAGCTT against Vmn1r206 | inactive: -0.625
GCCUGUCUGCCUUUGCUUCTT against H4c9 | active: 2.47
GGACGGCAGAAAGCAUUUATT against Olfr317 | inactive: 0.693
GGUUAACACUGGACGUGGUTT against Vps37c | inactive: -0.0487

Sequence | z-score
GGUGAAAACCUCAUAAAUGTT against Zfp945 | inactive: 0.878
GGCAAAGGAUGAUUCGGCUTT against Tfam | inactive: 0.495
GGUUGGGCAUUGCACUAACTT against Alg11 | inactive: -0.948
GGGAACCAUGGGAAUAUUUTT against Acaa1b | inactive: -0.0771
GGAGCUUAUGCAUGAGUUUTT against Slc16a3 | inactive: -0.768
GGUUUUUGAUGAUUGCUUUTT against Slc49a4 | inactive: 0.221
GCUCCAUGAAACCCACUCUTT against Zmiz1 | inactive: -0.656
GCACCUGGAAAUAAAAUGCTT against Selenbp2 | inactive: -0.899
GGAAUCUCAUGACUCUACCTT against Mybpc2 | inactive: 0.707
GGACCAUUUACACAUUCAGTT against Kptn | inactive: 0.239
GGUAGUGUCGGAUGUGCUATT against Mab21l2 | inactive: -0.696
GGAUAACACUGUGAGAGUUTT against Il17f | inactive: 1.25
GGCAAAAAGUAUUCUGAAGTT against Lrrc9 | inactive: 0.144
GGAGCCCAUCAAGUAUGGUTT against Peli3 | inactive: -1.92
CCAAGCUACCAGGGUUUUUTT against Abcb9 | active: 2.1
CCAAGAGUCUAUAUCCGCUTT against Sardh | inactive: 1.16
GCGACAGGAUGAGAAAGCATT against Ppm1f | inactive: 0.425
GGAUGGCUUUCUGUCUUUCTT against Trappc1 | inactive: 1
CGACCUACUCUACAGCAAATT against Brinp3 | active: 2.6
GGAAAUCGUAAAGUUUAGCTT against Inmt | inactive: 0.797
GGUCAACGUGUAUGUAUUUTT against Lrat | inactive: -1.27
GCCCUGAAGCCUAUAAUCATT against Nhlrc1 | active: 2.34

4 entries from above, with tabs.
Sequence	z-score
GCACCUGGAAAUAAAAUGCTT against Selenbp2	inactive: -0.899
GGAAUCUCAUGACUCUACCTT against Mybpc2	inactive: 0.707
GGACCAUUUACACAUUCAGTT against Kptn	inactive: 0.239
GGUAGUGUCGGAUGUGCUATT against Mab21l2	inactive: -0.696

The list continues.

Sequence | z-score
GCCGUAUGGCAAGAUUGUCTT against Rbms2 | inactive: -0.442
GGAAGCGAUAAUUUUAAGCTT against Ptges3 | inactive: 1.64
GGAUCUGGGAUACCACACATT against Wdr1 | inactive: 1.04
UCUCUUGGUACAUUUGGCATT against 1700073E17Rik | inactive: -0.039
GGGCAGAAAAUUGACUUAATT against Nemf | inactive: -1.14
GGAAUUCAUUGCUAUUAUGTT against Cetn3 | active: 2.12
GGUCAAAAGUGCUCUGAAGTT against Olfr447 | inactive: -0.142
GGAUGCUAUGAGCAACUUUTT against Mc4r | inactive: 0.47
GGAUGUCGAAGAAACAAAUTT against Ceacam12 | inactive: -1.39
GGGCUGAAUAAGGAACUGUTT against Nudt16l2 | inactive: 1.46
GGAAUAAUCCCAGAAUCAGTT against Stard6 | inactive: 0.0758
GGGUGCAUUACCCAGAUAUTT against Olfr1353 | inactive: 0.0848
GGGUGGAUUGAGAACAUCATT against Slc7a6os | inactive: -0.876
GGUGUUUUGCUUCCUUUUCTT against Olfr1184 | inactive: 0.121
CCGAAGUGGAAUAAAUUGUTT against Wdr63 | inactive: 0.637
GGACAUAGCAUGGUUCUAATT against Sult4a1 | inactive: 1.63
GGGAGUAGUAAUUGUACUUTT against Ugt2a2 | inactive: 0.401
GGAAAGCUUAUUUUCUCUCTT against Ppp1r1c | inactive: 0.437
